The record followed here is the supplement of paper PMC10849652.

By UniProt entry, the sequences of proteins in these tests, tags left out. Where a name states a change or a piece, a line headed by the entry shows the natural chain unless it says otherwise.
UniProt O14880: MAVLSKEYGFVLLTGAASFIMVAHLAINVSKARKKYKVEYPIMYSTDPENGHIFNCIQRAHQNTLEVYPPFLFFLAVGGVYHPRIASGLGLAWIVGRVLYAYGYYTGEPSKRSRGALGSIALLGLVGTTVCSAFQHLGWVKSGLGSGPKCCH
UniProt P50579: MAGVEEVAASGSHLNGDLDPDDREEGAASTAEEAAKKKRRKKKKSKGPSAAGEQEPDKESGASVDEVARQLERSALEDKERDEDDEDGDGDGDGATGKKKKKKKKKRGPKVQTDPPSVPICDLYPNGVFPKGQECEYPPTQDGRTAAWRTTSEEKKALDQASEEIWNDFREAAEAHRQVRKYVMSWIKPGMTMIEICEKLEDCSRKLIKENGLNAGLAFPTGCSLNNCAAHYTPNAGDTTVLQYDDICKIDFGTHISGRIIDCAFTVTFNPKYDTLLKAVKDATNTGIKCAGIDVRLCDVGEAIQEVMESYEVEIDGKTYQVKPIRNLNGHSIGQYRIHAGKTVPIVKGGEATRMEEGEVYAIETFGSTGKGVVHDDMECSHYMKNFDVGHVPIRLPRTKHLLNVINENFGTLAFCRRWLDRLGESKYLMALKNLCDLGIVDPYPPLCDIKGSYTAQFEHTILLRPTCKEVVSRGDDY
UniProt Q9NR56: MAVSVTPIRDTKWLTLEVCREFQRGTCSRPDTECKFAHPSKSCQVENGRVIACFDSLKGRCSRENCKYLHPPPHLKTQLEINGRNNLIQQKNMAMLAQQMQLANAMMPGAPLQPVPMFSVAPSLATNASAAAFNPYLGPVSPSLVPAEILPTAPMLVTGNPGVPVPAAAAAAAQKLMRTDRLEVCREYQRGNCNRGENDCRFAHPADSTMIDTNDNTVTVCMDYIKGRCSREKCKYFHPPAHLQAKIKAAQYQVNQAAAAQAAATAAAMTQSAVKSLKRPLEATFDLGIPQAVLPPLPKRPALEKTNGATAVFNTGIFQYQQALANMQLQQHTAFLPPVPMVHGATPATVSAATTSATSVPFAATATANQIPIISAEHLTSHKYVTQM
UniProt O95983: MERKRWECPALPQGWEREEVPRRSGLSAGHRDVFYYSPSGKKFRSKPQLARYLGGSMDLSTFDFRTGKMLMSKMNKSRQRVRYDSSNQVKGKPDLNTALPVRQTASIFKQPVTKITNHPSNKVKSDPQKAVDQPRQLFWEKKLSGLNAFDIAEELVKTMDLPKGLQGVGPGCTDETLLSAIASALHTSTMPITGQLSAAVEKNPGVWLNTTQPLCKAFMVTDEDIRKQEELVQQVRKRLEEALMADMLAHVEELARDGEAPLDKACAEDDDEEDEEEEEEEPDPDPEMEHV
UniProt Q96RN5: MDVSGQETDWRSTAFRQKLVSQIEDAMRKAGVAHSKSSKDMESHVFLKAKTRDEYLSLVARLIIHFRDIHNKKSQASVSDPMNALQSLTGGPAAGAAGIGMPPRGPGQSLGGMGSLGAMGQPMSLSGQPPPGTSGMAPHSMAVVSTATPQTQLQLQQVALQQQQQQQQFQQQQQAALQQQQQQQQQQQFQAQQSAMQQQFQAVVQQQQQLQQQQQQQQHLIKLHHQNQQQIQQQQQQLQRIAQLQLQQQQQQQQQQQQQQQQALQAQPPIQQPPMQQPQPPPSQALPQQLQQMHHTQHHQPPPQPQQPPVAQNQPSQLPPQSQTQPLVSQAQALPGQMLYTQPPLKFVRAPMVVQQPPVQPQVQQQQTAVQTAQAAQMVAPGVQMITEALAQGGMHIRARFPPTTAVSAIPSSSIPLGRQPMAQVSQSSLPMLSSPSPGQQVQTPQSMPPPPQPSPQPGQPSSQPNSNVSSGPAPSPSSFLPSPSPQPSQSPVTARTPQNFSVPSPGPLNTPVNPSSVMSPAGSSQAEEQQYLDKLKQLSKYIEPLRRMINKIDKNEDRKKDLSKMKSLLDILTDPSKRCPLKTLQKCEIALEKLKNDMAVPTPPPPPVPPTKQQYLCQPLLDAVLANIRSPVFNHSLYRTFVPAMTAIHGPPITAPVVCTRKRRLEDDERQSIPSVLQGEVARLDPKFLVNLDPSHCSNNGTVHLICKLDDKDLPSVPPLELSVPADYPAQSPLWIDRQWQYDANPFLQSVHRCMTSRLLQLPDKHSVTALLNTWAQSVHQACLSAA
UniProt O75448: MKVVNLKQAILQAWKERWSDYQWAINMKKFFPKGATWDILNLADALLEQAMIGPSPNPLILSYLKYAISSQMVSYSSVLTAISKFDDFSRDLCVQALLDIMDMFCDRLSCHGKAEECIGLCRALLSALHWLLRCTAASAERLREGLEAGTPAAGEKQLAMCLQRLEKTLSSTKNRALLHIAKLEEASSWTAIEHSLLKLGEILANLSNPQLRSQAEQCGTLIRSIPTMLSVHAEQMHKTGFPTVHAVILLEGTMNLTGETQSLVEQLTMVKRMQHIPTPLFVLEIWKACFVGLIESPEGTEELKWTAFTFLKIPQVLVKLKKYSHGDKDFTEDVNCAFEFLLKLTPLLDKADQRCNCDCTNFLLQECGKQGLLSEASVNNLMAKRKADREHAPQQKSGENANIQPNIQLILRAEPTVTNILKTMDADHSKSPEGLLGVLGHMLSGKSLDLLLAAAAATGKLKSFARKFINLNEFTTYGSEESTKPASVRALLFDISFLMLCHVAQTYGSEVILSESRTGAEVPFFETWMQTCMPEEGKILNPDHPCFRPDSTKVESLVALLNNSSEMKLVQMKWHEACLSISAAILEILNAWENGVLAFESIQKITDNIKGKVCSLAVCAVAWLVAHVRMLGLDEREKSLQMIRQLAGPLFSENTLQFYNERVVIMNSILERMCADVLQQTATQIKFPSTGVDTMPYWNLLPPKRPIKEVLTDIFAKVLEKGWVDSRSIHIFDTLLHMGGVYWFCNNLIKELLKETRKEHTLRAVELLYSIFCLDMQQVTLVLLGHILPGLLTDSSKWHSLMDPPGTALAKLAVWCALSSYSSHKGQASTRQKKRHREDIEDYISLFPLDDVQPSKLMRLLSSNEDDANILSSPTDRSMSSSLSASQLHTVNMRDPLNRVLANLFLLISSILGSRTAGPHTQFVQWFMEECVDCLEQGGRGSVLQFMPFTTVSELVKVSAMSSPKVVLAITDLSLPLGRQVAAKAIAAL
UniProt Q14814: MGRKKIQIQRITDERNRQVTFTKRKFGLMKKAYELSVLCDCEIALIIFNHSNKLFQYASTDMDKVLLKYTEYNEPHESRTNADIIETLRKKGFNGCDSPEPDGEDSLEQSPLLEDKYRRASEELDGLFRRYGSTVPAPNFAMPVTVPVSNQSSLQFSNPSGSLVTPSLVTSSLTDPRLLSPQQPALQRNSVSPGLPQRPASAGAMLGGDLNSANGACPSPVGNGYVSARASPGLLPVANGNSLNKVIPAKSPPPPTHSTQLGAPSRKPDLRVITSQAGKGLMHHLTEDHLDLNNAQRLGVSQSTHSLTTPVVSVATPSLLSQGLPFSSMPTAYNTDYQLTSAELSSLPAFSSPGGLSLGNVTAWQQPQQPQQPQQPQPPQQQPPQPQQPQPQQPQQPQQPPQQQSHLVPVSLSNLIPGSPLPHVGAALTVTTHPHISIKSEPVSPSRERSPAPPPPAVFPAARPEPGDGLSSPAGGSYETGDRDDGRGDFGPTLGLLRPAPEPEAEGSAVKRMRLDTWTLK
UniProt Q8N6Q8: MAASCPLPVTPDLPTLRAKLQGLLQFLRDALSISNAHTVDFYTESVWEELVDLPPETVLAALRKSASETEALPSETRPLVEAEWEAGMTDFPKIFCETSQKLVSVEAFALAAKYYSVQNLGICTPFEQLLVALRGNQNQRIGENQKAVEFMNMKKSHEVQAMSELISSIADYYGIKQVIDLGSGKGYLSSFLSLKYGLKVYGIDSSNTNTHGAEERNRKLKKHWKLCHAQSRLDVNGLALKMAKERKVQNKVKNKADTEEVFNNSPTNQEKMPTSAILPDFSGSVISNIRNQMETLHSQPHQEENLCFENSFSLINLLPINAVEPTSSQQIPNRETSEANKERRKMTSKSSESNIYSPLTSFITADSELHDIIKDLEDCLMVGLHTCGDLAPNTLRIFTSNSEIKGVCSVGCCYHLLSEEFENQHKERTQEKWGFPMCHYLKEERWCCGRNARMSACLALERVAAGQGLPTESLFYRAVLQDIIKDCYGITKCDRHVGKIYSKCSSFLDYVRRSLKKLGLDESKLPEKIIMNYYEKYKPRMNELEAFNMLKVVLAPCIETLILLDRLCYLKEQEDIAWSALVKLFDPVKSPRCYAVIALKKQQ
UniProt Q9BTT4: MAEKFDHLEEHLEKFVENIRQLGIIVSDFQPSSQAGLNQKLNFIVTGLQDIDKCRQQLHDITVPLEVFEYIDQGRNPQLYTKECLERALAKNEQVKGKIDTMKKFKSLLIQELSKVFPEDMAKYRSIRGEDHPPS
UniProt Q14696: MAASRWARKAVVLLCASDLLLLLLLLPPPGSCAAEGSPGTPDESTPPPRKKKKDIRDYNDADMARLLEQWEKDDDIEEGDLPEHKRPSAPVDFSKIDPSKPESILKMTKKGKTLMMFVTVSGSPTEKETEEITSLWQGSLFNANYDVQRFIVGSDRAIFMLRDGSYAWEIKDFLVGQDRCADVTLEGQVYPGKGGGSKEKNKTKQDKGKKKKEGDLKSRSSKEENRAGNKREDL
UniProt Q06413, whole entry, looked up: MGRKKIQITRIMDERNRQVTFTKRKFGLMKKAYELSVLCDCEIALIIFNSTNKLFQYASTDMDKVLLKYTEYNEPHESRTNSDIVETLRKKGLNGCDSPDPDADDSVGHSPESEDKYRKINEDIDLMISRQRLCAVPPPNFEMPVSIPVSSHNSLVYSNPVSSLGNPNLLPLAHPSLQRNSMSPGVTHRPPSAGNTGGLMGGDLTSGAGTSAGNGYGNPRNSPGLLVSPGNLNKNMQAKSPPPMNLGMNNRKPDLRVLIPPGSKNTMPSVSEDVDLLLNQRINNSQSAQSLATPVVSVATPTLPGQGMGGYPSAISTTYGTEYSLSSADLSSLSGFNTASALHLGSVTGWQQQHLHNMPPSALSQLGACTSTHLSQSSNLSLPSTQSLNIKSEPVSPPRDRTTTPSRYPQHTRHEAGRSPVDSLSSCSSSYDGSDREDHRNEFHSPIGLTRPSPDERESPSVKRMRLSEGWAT
UniProt Q96HR3: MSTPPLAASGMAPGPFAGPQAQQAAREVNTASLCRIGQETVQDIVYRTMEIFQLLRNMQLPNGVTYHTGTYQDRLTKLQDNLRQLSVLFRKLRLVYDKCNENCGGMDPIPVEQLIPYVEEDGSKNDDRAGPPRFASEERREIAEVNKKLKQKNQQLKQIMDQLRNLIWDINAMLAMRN
UniProt Q9BUE0: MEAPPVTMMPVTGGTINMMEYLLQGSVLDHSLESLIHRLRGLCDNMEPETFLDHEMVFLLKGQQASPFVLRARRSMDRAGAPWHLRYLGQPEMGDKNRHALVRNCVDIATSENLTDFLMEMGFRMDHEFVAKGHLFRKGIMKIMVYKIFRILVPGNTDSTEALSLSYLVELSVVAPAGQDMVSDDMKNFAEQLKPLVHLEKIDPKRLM
UniProt P55081: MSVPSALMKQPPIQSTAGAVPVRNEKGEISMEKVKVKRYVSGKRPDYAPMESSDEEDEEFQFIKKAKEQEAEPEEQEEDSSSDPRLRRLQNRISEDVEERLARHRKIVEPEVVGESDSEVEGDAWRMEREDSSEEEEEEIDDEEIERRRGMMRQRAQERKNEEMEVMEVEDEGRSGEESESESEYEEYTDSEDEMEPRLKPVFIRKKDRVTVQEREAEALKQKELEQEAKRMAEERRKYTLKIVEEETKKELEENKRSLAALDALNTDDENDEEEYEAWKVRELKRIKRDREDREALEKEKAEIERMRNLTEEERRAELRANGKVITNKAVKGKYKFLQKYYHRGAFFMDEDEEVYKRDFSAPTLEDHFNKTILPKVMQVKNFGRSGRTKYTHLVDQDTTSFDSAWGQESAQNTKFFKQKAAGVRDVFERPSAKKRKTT
UniProt Q9UQ53: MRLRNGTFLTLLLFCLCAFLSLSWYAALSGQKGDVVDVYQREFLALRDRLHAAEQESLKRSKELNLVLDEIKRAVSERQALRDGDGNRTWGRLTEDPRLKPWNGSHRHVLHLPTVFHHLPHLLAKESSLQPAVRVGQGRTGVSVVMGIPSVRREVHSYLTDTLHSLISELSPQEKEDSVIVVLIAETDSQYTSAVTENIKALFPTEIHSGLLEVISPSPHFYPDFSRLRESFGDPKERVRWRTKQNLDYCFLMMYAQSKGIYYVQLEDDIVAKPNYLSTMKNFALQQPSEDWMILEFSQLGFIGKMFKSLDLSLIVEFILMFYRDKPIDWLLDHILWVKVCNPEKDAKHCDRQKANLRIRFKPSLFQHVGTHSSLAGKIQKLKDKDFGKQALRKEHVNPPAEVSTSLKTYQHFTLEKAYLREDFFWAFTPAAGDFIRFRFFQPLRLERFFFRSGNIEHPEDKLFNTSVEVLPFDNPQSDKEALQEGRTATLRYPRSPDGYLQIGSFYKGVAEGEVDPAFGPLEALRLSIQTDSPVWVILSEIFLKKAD
UniProt Q9BUT9: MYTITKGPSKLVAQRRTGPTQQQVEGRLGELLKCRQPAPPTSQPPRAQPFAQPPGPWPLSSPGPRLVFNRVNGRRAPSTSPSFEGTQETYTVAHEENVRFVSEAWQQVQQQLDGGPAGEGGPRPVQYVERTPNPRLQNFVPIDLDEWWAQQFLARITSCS

Some of the results follow.

Compound in the first assay: Cc1ncc(-c2ccnc(Nc3ccc(S(C)(=O)=O)cc3)n2)n1C(C)C
Nature of the assay: log2 fold change, soluble protein after heating vs DMSO (PISA); higher = thermal stabilisation; K562 cells, 10 uM, 30 min; active = over 0.2 and 3.5 SD of the protein, either way, in both replicates (recomputed). The method in brief: (§1)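 Soluble protein was quantified by TMTpro 16plex LC-MS/MS after channel sums were equalised. It was obtained as the supernatant after 21,000xg for 90 min from pooled aliquots of K562 cells (2×10^6 cells/mL, 10 μM compound, 30 min) heated for 3 min across 48°C-58°C and extracted in PBS with 0.5% NP-40 at 4°C. Thermal stability values are relative to control samples and come from duplicates. They are given as log2 fold changes.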
In the case of METAP1 (UniProt P53582), the log2 fold change is inactive: -0.018.

Consider MGST3 (UniProt O14880), for which the log2 fold change was inactive: -0.056.

For METAP2 (UniProt P50579), the log2 fold change was inactive: -0.019.

As to MBNL1 (UniProt Q9NR56), the log2 fold change was inactive: 0.01.

MEAF6 isoform 3 (UniProt Q9HAF1): the log2 fold change was inactive: -0.025.

For the target MFSD14B (UniProt Q5SR56), the log2 fold change is inactive: -0.042.

Take MBD3 (UniProt O95983): the log2 fold change was inactive: -0.011.

MED15 (UniProt Q96RN5): the log2 fold change was inactive: -0.076.

With MED24 (UniProt O75448), the log2 fold change was inactive: -0.127.

Take MEF2D (UniProt Q14814): the log2 fold change was inactive: -0.037.

Regarding METTL25 (UniProt Q8N6Q8), the log2 fold change is inactive: -0.09.

MED10 (UniProt Q9BTT4): the log2 fold change was inactive: -0.058.

Compound in another assay: Cn1cc(-c2ccc3c(c2)CCN3C(=O)Cc2cccc(C(F)(F)F)c2)c2c(N)ncnc21
Described as above. The method in brief:
as §1
Turning to MIB1 (UniProt Q86YT6), the log2 fold change was inactive: -0.034.

For MCM2 (UniProt P49736), the log2 fold change is inactive: 0.037.

For MESD (UniProt Q14696), the log2 fold change is inactive: -0.076.

Consider MCRIP1 (UniProt I3L4Q0), for which the log2 fold change is inactive: 0.027.

MDN1 (UniProt Q9NU22): the log2 fold change is inactive: 0.02.

With MED23 (UniProt Q9ULK4), the log2 fold change was inactive: -0.021.

Consider METTL7A (UniProt Q9H8H3), for which the log2 fold change is inactive: 0.077.

On to MCM5 (UniProt P33992), for which the log2 fold change was inactive: 0.028.

For the target METTL5 (UniProt Q9NRN9), the log2 fold change is inactive: -0.026.

As to MECR (UniProt Q9BV79), the log2 fold change is inactive: 0.084.

On to METTL2B (UniProt Q6P1Q9), for which the log2 fold change was inactive: -0.019.

Regarding MBOAT1 (UniProt Q6ZNC8), the log2 fold change is inactive: 0.022.

With MEF2C isoform 5 (UniProt Q06413), the log2 fold change was inactive: -0.083.

Regarding MAT2B (UniProt Q9NZL9), the log2 fold change was inactive: 0.021.

As to METTL21A (UniProt Q8WXB1), the log2 fold change is inactive: 0.099.

Turning to MERTK (UniProt Q12866), the log2 fold change is inactive: -0.004.

Regarding MCM3 isoform 2 (UniProt P25205), the log2 fold change is inactive: 0.017.

As to MCCC2 (UniProt Q9HCC0), the log2 fold change was inactive: 0.04.

MED30 (UniProt Q96HR3): the log2 fold change was inactive: -0.058.

As for METTL6 (UniProt Q8TCB7), the log2 fold change is inactive: 0.011.

Turning to MED18 (UniProt Q9BUE0), the log2 fold change is inactive: 0.032.

On to MFAP1 (UniProt P55081), for which the log2 fold change is inactive: 0.031.

Take MCCC1 (UniProt Q96RQ3): the log2 fold change is inactive: 0.016.

Regarding MGAT4B isoform 3 (UniProt Q9UQ53), the log2 fold change was inactive: -0.079.

Take MED14 (UniProt O60244): the log2 fold change was inactive: 0.056.

For MFSD10 (UniProt Q14728), the log2 fold change is inactive: 0.013.

Turning to METAP1 (UniProt P53582), the log2 fold change is inactive: -0.012.

Turning to MGST3 (UniProt O14880), the log2 fold change was inactive: 0.004.

Turning to METAP2 (UniProt P50579), the log2 fold change is inactive: 0.025.

MCRIP2 (UniProt Q9BUT9): the log2 fold change is inactive: 0.033.

For MBNL1 (UniProt Q9NR56), the log2 fold change is inactive: -0.034.

With MEAF6 isoform 3 (UniProt Q9HAF1), the log2 fold change was inactive: 0.009.

For the target MFSD14B (UniProt Q5SR56), the log2 fold change was inactive: 0.003.

In the case of MBD3 (UniProt O95983), the log2 fold change is inactive: -0.083.

Turning to MED15 (UniProt Q96RN5), the log2 fold change was inactive: 0.002.

As to MED24 (UniProt O75448), the log2 fold change is inactive: -0.054.

As to MEF2D (UniProt Q14814), the log2 fold change is inactive: 0.04.

In the case of METTL25 (UniProt Q8N6Q8), the log2 fold change is inactive: 0.062.

For MED10 (UniProt Q9BTT4), the log2 fold change was inactive: 0.029.

Compound in the next assay: Cn1cc(-c2ccc3nnc(C(F)(F)c4ccc5ncccc5c4)n3n2)cn1
The description is as above. The method in brief: as §1
MIB1 (UniProt Q86YT6): the log2 fold change is inactive: -0.022.

For MCM2 (UniProt P49736), the log2 fold change is inactive: 0.054.

Regarding MESD (UniProt Q14696), the log2 fold change is inactive: 0.006.

Take MCRIP1 (UniProt I3L4Q0): the log2 fold change was inactive: -0.066.

For the target MDN1 (UniProt Q9NU22), the log2 fold change was inactive: 0.011.

Turning to MED23 (UniProt Q9ULK4), the log2 fold change was inactive: -0.008.

As for METTL7A (UniProt Q9H8H3), the log2 fold change was inactive: 0.007.

With MCM5 (UniProt P33992), the log2 fold change is inactive: 0.

METTL5 (UniProt Q9NRN9): the log2 fold change was inactive: 0.048.

For MECR (UniProt Q9BV79), the log2 fold change is inactive: 0.022.

METTL2B (UniProt Q6P1Q9): the log2 fold change was inactive: -0.078.

MBOAT1 (UniProt Q6ZNC8): the log2 fold change is inactive: -0.047.

Consider MEF2C isoform 5 (UniProt Q06413), for which the log2 fold change was inactive: -0.165.

With MAT2B (UniProt Q9NZL9), the log2 fold change was inactive: 0.023.

As for METTL21A (UniProt Q8WXB1), the log2 fold change is inactive: -0.013.

As for MCM3 isoform 2 (UniProt P25205), the log2 fold change is inactive: 0.03.

As to MCCC2 (UniProt Q9HCC0), the log2 fold change was inactive: 0.028.

As to MED30 (UniProt Q96HR3), the log2 fold change is inactive: -0.035.

Consider MED18 (UniProt Q9BUE0), for which the log2 fold change is inactive: -0.015.

As to MFAP1 (UniProt P55081), the log2 fold change was inactive: 0.007.

MCCC1 (UniProt Q96RQ3): the log2 fold change is inactive: 0.011.

As for MGAT4B isoform 3 (UniProt Q9UQ53), the log2 fold change was inactive: -0.025.

Regarding MED14 (UniProt O60244), the log2 fold change was inactive: -0.098.

As for MFSD10 (UniProt Q14728), the log2 fold change was inactive: 0.

Turning to METAP1 (UniProt P53582), the log2 fold change is inactive: -0.039.

On to MGST3 (UniProt O14880), for which the log2 fold change is inactive: -0.026.

Regarding METAP2 (UniProt P50579), the log2 fold change is inactive: -0.086.

MCRIP2 (UniProt Q9BUT9): the log2 fold change is inactive: 0.028.

Regarding MBNL1 (UniProt Q9NR56), the log2 fold change is inactive: 0.009.

As for MEAF6 isoform 3 (UniProt Q9HAF1), the log2 fold change is inactive: -0.013.

In the case of MBD3 (UniProt O95983), the log2 fold change is inactive: 0.

Take MED15 (UniProt Q96RN5): the log2 fold change is inactive: 0.054.

Turning to MED24 (UniProt O75448), the log2 fold change was inactive: 0.165.

For MEF2D (UniProt Q14814), the log2 fold change is inactive: 0.006.

Consider MED10 (UniProt Q9BTT4), for which the log2 fold change was inactive: 0.051.
